This note sets out measurements from publication PMC6554275.

No constants are given. Whether binding was seen depends on the method and setting. In cells and extracts the contact can be indirect. A result given as binding can be weak or reduced; the word gives no strength. Tags and fused reporters may be left off the sequences shown.

Test [1] deals with T1, wild-type human myc-tagged SFRP3 (human) (UniProt Q92765).
T1 sequence: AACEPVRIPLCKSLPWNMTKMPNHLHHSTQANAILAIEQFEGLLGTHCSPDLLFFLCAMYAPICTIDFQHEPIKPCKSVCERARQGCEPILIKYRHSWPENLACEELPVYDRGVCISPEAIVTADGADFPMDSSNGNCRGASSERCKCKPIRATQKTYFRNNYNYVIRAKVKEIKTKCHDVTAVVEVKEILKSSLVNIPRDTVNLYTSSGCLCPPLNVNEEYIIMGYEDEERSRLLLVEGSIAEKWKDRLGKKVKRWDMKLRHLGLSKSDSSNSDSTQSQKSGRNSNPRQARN
Put plainly: co-IP; HEK293 cells transiently co-transfected with SFRP3-myc and V5/HA-tagged Wnt; lysis in 150 mM NaCl, 50 mM Tris pH 8, 1% NP40; anti-myc conjugated beads 2 h at 4 °C; blots with anti-myc, anti-V5, anti-HA.

Test [2] has as its target GST-tagged NRT domain of SFRP3 (not stated (human or mouse cDNA cloned)). Put plainly: pull-down; GST-tagged forms of SFRP3; HEK293 cells transfected with empty, Wnt2-V5, Wnt5a-V5 or Wnt7b-HA constructs; blots with anti-V5 and anti-HA.

With Wnt7b-HA (ligand), the binding entry in test [1] is “binds”.

B1: Active Wnt5a-V5 (ligand, UniProt P41221 62-380)
chain: IIGAQPLCSQLAGLSQGQKKLCHLYQDHMQYIGEGAKTGIKECQYQFRHRRWNCSTVDNTSVFGRVMQIGSRETAFTYAVSAAGVVNAMSRACREGELSTCGCSRAARPKDLPRDWLWGGCGDNIDYGYRFAKEFVDARERERIHAKGSYESARILMNLHNNEAGRRTVYNLADVACKCHGVSGSCSLKTCWLQLADFRKVGDALKEKYDSAAAMRLNSRGKLVQVNSRFNSPTTQDLVYIDPSPDYCVRNESTGSLGTQGRLCNKTSEGMDGCELMCCGRGYDQFKTVQTERCHCKFHWCCYVKCKKCTEIVDQFVCK
As for B1, the binding entry in test [2] was “binds”.

B2: Active Wnt2-V5 (ligand, UniProt P09544 26-360)
chain: SWWYMRATGGSSRVMCDNVPGLVSSQRQLCHRHPDVMRAISQGVAEWTAECQHQFRQHRWNCNTLDRDHSLFGRVLLRSSRESAFVYAISSAGVVFAITRACSQGEVKSCSCDPKKMGSAKDSKGIFDWGGCSDNIDYGIKFARAFVDAKERKGKDARALMNLHNNRAGRKAVKRFLKQECKCHGVSGSCTLRTCWLAMADFRKTGDYLWRKYNGAIQVVMNQDGTGFTVANERFKKPTKNDLVYFENSPDYCIRDREAGSLGTAGRVCNLTSRGMDSCEVMCCGRGYDTSHVTRMTKCGCKFHWCCAVRCQDCLEALDVHTCKAPKNADWTTAT
Take B2: the binding result in test [2] is “binds”.
